# PubChem BioAssay AID1259282 – Sanger Institute, 2017
# Assay: 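Kinases whose loss reduces viability on their own or with anchor drugs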 (primary screen)
# System: DIFI human colorectal cancer cell line
# Reagents: siRNA pool against human genes
# Challenge: anchor drug at a mild dose (BYL719 1 µM, cetuximab 5 µg/ml, trametinib 10 nM) or DMSO vehicle; exposure time not given
# Read-out: 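Viability relative to non-targeting pool wells, replicate mean, in DMSO or low-dose BYL719, cetuximab or trametinib; robust z-score without drug; synergy score per drug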
# Scale: robust z-score, knock-down alone: higher = more viable cells than typical knock-down; viability, knock-down alone: higher = more viable cells; synergy score with trametinib: higher = stronger combined killing with drug
# Rule for the call: 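a knock-down is called essential if its DMSO robust z-score is under -3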
# Meaning of the calls: active = essential (knock-down alone, z below -3); inactive = not essential
# The whole screen tested 794 reagents; shown is a random part of them. Over the whole deposit, 11 (1.4%) were called active. 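Calls flag knock-downs that lower viability without drug; drug synergy appears only in the synergy scores; exposure time not stated.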 Entries without a mark were called inactive. No viability above 1 is reported: the scale is capped. Not all columns of the deposit are shown. No sequences are given here. Not stated in the record: the amount of reagent, the time to read-out.
gene,PubChem SID,"robust z-score, knock-down alone","viability, knock-down alone (fraction of control)",synergy score with trametinib
DCK (GeneID 1633),SID56479088,-2.51,0.532,0.0483
CHUK (GeneID 1147),SID152149746,0.715,1,-0.143
NME3 (GeneID 4832),SID135621244,0.715,1,0.118
HIPK4 (GeneID 147746),SID135620890,0.715,1,-0.218
EPHA8 (GeneID 2046),SID135620615,-1.85,0.627,0.0493
CDK11A (GeneID 728642),SID152154784,-0.841,0.774,0.112
PI4KA (GeneID 5297),SID135621251,-0.876,0.769,0.0943
CDKN2B (GeneID 1030),SID135620642,0.715,1,-0.0119
ITSN1 (GeneID 6453),SID135621555,-1.92,0.618,-0.162
MAP4K3 (GeneID 8491),SID135620707,0.715,1,-0.0239
AK7 (GeneID 122481),SID152153423,0.715,1,-0.0704
INSR (GeneID 3643),SID152149459,0.279,0.937,0.0948
DTYMK (GeneID 1841),SID135621237,0.715,1,-0.0561
DGKH (GeneID 160851),SID134311961,0.715,1,0.0805
MAGI2 (GeneID 9863),SID135622325,0.715,1,0.0291
RPS6KB1 (GeneID 6198),SID152147142,-1.25,0.714,-0.052
FGFR3 (GeneID 2261),SID56478513,-0.294,0.853,-0.105
IKBKG (GeneID 8517),SID152147833,0.715,1,0.0277
MAPK7 (GeneID 5598),SID56478666,0.715,1,0.00333
BMP2K (GeneID 55589),SID135620930,0.715,1,0.164
RPS6KA2 (GeneID 6196),SID135620862,-0.901,0.765,0.00485
PIK3C3 (GeneID 5289),SID134310831,0.579,0.98,0.0714
PAK4 (GeneID 10298),SID152147637,0.308,0.941,0.14
DAPK2 (GeneID 23604),SID152156399,0.715,1,-0.104
RPS6KA5 (GeneID 9252),SID135620863,-1.34,0.701,0.0571
CHD9 (GeneID 80205),SID152154196,-0.423,0.835,0.0313
CLK4 (GeneID 57396),SID56478876,0.715,1,-0.0245
NME6 (GeneID 10201),SID56479120,-2,0.605,-0.106
PIK3CD (GeneID 5293),SID135621250,0.7,0.998,-0.01
MYLK (GeneID 4638),SID152147192,-2.4,0.547,0.124
TWF2 (GeneID 11344),SID56478547,-1.42,0.689,0.187
SCYL1 (GeneID 57410),SID152146872,0.715,1,-0.0456
ETNK1 (GeneID 55500),SID152152739,0.715,1,-0.00562
PIK3R2 (GeneID 5296),SID135620607,0.715,1,-0.0845
FGFR1 (GeneID 2260),SID135620619,0.715,1,0.0476
FYN (GeneID 2534),SID135620621,0.715,1,-0.0574
CALM2 (GeneID 805),SID134320655,-1.31,0.705,0.02
ANKK1 (GeneID 255239),SID56478922,-0.868,0.77,0.0813
TRIB3 (GeneID 57761),SID56478723,0.0035,0.897,-0.0897
TPK1 (GeneID 27010),SID135621256,0.0826,0.908,0.106
EPHB1 (GeneID 2047),SID152152600,-0.37,0.842,0.193
TP53 (GeneID 7157),SID135620665,-0.647,0.802,0.231
NR2F2 (GeneID 7026),SID134309873,0.038,0.902,0.248
PRKAB2 (GeneID 5565),SID134312706,-1.25,0.714,0.179
CHEK2 (GeneID 11200),SID152153325,0.715,1,0.126
HIPK3 (GeneID 10114),SID152151658,0.504,0.969,-0.0143
CDKN1C (GeneID 1028),SID56478604,0.715,1,0.125
TK2 (GeneID 7084),SID152153963,0.715,1,-0.0574
KIT (GeneID 3815),SID152151885,0.0348,0.901,0.146
AK4 (GeneID 205),SID152149659,0.715,1,0.18
